Screen size: about 330,000 compounds; about 7,700 (2.3%) were called active. This list was built around the results that the source calls inconclusive (neither active nor inactive); the mix of calls is not that of the screen. Calls follow the shape of the dose curve; as a rule, active = well fitted inhibition curve with a large enough effect; inconclusive = small, poorly fitted or top-dose-only effect, or effect the other way; inactive = flat fitted curve, though single readings scatter. Where the call is inconclusive, the potency comes from a doubtful curve fit.
Experiment: qHTS screen for small molecules that inhibit ELG1-dependent DNA repair in human embryonic kidney (HEK293T) cells expressing luciferase-tagged ELG1; also: nearly all actives have a fitted effect of over 55% in size
Settings: HEK293T ELG1-luciferase reporter, luminescence, 16 h, DNA damage induced by 5-fluorouridine; activity change, negative = inhibition: at 46.1 µM (top of the series)
Method in brief: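 5-Fluorouridine DNA damage + compound/DMSO, 2,000 cells/well, 16 h, 37 °C/5% CO2. ONE-Glo, 30 min RT, luminescence. Readout = decrease in reporter signal.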
In the case of `COc1cc(/C=C(\C#N)C(=O)N2CCc3ccccc32)ccc1O`, the “activity change, negative = inhibition” value is reported as inactive: 10.9%.
With `O=C(Nc1ccon1)c1ccc(Cl)c(S(=O)(=O)N2CCCCC2)c1` the “activity change, negative = inhibition” value was inactive: -7.71%.
With `CC(Oc1cc(F)ccc1[N+](=O)[O-])C(=O)Nc1ccc(S(=O)(=O)N2CCCC2)cc1` (stereo not given) the Potency was inconclusive: 29.1 µM [inhibitor, single point].
For `C#CCN(CC=C)C(=O)CCc1nnc(COc2ccccc2)o1`, the Potency was inconclusive: 23.1 µM [activator, partial curve].
With `O=C(NCCCN1CCCC1=O)c1sc2ccccc2c1Cl` the Potency was inconclusive: 16.4 µM [activator, single point].
In the case of `COc1ccc(C(=O)Nc2nnc(SCC(=O)NCc3ccco3)s2)c(OC)c1`, the Potency is reported as inconclusive: 0.58 µM [activator, full curve].
For `O=C(CSc1ncccn1)N1CCCc2ccccc21`, the Potency was inconclusive: 23.1 µM [activator, single point].
With `COc1cc2ncc(S(=O)(=O)c3ccccc3)c(N3CCCC(C)C3)c2cc1OC` (stereo not given) the Potency was active: 18.3 µM.
For `O=C(NC(=S)N1CCN(c2c(Cl)cccc2[N+](=O)[O-])CC1)c1cccs1`, the Potency was inconclusive: 20.6 µM [inhibitor, single point].
For `Cc1ccc(-c2c(C(=O)N/N=C/c3ccoc3)nnn2-c2nonc2N)cc1`, the “activity change, negative = inhibition” value was inactive: 0.488%.
In the case of `O=C(C[C@H]1C/C=C\CC[C@H](Cc2ccc(F)cc2)C(=O)O[C@@H](c2ccccc2)CNC1=O)N[C@H](CO)Cc1ccccc1`, the Potency is reported as active: 20.6 µM.
For `COc1cc(SC)ccc1C(=O)OCC(=O)NC1CCCC1`, the Potency was inconclusive: 29.1 µM [activator, single point].
With `COc1ccc(C(=O)C2CCN(S(=O)(=O)c3ccc4c(c3)OCCO4)CC2)cc1` the Potency was inconclusive: 23.1 µM [inhibitor, partial curve, poor fit].
For `O=S(=O)(Nc1ccc(-n2cnnn2)cc1)c1cccc(F)c1`, the “activity change, negative = inhibition” value was inactive: 9.82%.
With `C#CCOCCOCCOCCNc1nc(N2CCN(C(=O)[C@H]([C@@H](C)O)n3cc(CCCCN)nn3)CC2)nc(N2CCN(C(=O)[C@H]([C@@H](C)CC)n3cc(CCCN=C(N)N)nn3)CC2)n1` the “activity change, negative = inhibition” value was inactive: 6.24%.
With `O=C1c2cccc3cc([N+](=O)[O-])cc(c23)C(=O)N1CCN1CCCC1` the Potency was inconclusive: 29.1 µM [inhibitor, single point].
With `O=C(O)c1ccccc1NN=C1CCCCC1` the Potency was inconclusive: 16.4 µM [activator, partial curve].
For `COc1ccc2nc3oc(C(=O)N4CCCCC4)cc3cc2c1`, the Potency was inconclusive: 5.8 µM [activator, partial curve].
With `COc1ccc2cc(CCNC(=O)c3c(-c4ccccc4Cl)noc3C)c(=O)[nH]c2c1` the Potency was inconclusive: 25.9 µM [inhibitor, partial curve, poor fit].
For `N#C/C(=C\c1cn[nH]c1-c1ccccc1)C(=O)NC1CCCCCC1`, the Potency was inconclusive: 14.6 µM [inhibitor, partial curve].
For `COc1ccc2cc(C(C)C(=O)N3CCC(C(N)=O)CC3)ccc2c1` (stereo not given), the “activity change, negative = inhibition” value was inactive: 12%.
With `COc1ccc(-c2cc3ccccc3n2CC(O)CNCCO)cc1` (stereo not given) the “activity change, negative = inhibition” value was inactive: 3.43%.
For `C/C(=N\Nc1ccc(Cl)cc1)c1c(O)cc(C)oc1=O`, the Potency was inconclusive: 32.6 µM [inhibitor, single point].
For `COc1ccc(S(=O)(=O)N(C)c2ccc(C(=O)Nc3cccnc3)cc2)cc1`, the Potency was active: 23.1 µM.
For `O=C(OCc1cccc(C(F)(F)F)c1)c1cc([N+](=O)[O-])ccc1N1CCOCC1`, the “activity change, negative = inhibition” value was inactive: -19.5%.
For `CCOc1ccc(Oc2cc(C)nc(SC)n2)nn1`, the Potency was inconclusive: 23.1 µM [activator, single point].
For `CCC[C@H]1COCCS(=O)(=O)N1Cc1ccccc1F`, the Potency was inconclusive: 1.83 µM [inhibitor, full curve, poor fit].
In the case of `O=C(/C=C/c1ccco1)NC(=S)Nc1ccccc1N1CCOCC1`, the “activity change, negative = inhibition” value is reported as inactive: 13%.
With `O=C(NCc1ccccc1)C1=C[C@H](C2CCCCC2)C[C@H](OCc2ccc(CO)cc2)O1` the Potency was inconclusive: 18.3 µM [inhibitor, single point].
For `CCOC(=O)C1(CCOc2ccccc2)CCN(Cc2ccc(O)c(OCC)c2)CC1`, the Potency was inconclusive: 20.6 µM [inhibitor, partial curve, poor fit].
With `COc1ccc(C2(C)NC(=O)N(CC(=O)c3cc(C)n(C4CC4)c3C)C2=O)cc1` (stereo not given) the “activity change, negative = inhibition” value was inactive: 9.71%.
For `CCOC(=O)C1(CCCc2ccccc2)CCN(C2CCSCC2)CC1`, the Potency was inconclusive: 20.6 µM [inhibitor, single point].
With `CC(C)(C)OC(=O)[C@H](Cc1ccccc1)NC(=O)c1nc[nH]c1C(=O)N[C@@H](CCCCN)C(=O)OC(C)(C)C` the “activity change, negative = inhibition” value was inactive: 21.3%.
With `COc1ccc(CNc2ncnc3c2[nH]c2ccccc23)cc1` the Potency was active: 2.06 µM.
With `O=c1c2oc3nc4c(cc3c2ncn1CCCc1ccccc1)CCCC4` the Potency was inconclusive: 18.3 µM [activator, partial curve].
In the case of `CC(=O)Nc1ccc(S(=O)(=O)Nc2cc(C)ccn2)cc1`, the “activity change, negative = inhibition” value is reported as inactive: 8.2%.
In the case of `Cc1cccc(C(=O)OCC(=O)Nc2ccccc2C(=O)NC2CC2)c1`, the “activity change, negative = inhibition” value is reported as inactive: -2.01%.
For `COc1nc(N)nc2nc[nH]c12`, the “activity change, negative = inhibition” value was inactive: 2.84%.
In the case of `Cc1ccc(OC(C)C(=O)N2CC(=O)Nc3ccccc32)cc1` (stereo not given), the Potency is reported as active: 18.3 µM.
With `COc1ccc2cc3c(N)nn(C(=O)c4ccc(F)cc4)c3nc2c1` the Potency was active: 4.11 µM.
In the case of `CC1=NC(=O)C(N=Nc2ccccc2)N1c1ccccc1` (stereo not given), the Potency is reported as inconclusive: 9.2 µM [activator, partial curve].
With `CCN(CC)c1ccc(NC(=O)CN(C)Cc2cccs2)cc1` the “activity change, negative = inhibition” value was inactive: -16.9%.
With `CCC(CC)C(=O)Nc1ccc([N+](=O)[O-])cn1` the “activity change, negative = inhibition” value was inactive: -2.68%.
With `CC(C)CC(=O)N1CC(=O)Nc2ccc(F)cc2C1c1ccccc1` (stereo not given) the “activity change, negative = inhibition” value was inactive: -6.81%.
With `Cc1nc2cc(-c3ccc(Br)cc3)[nH]n2c(=O)c1Cl` the Potency was inconclusive: 20.6 µM [activator, partial curve].
For `CN(C)CCN1C(=O)C(=O)/C(=C(/O)c2ccc3c(c2)OCCO3)C1c1ccccn1` (stereo not given), the Potency was inconclusive: 5.8 µM [activator, full curve, poor fit].
In the case of `CSCCC(NC(=O)c1ccc(Cl)cc1)C(=O)OCC(=O)Nc1cc(Cl)ccc1C` (stereo not given), the Potency is reported as inconclusive: 29.1 µM [activator, single point].
In the case of `COc1cc2nc(CN(C)Cc3ccc(F)cc3)[nH]c(=O)c2cc1OC`, the Potency is reported as inconclusive: 29.1 µM [inhibitor, single point].
With `Cc1nc2sccn2c(=O)c1S(=O)(=O)Nc1ccc(N2CCN(S(C)(=O)=O)CC2)cc1` the Potency was active: 9.2 µM.
With `Fc1ccc(Oc2nc(-c3ccccn3)nc3ccccc23)cc1` the Potency was inconclusive: 18.3 µM [inhibitor, partial curve].
For `Cc1nc2ccc(NC(=O)CCS(=O)(=O)c3ccccc3)cc2s1`, the Potency was inconclusive: 14.6 µM [activator, partial curve].
For `O=C(Nc1ccc(N2CCCCC2)cc1)c1cccnc1`, the Potency was inconclusive: 5.17 µM [activator, partial curve].
With `Cc1ccc(/C=[N+](\[O-])c2ccc(N(C)C)cc2)c2nsnc12` the Potency was inconclusive: 9.2 µM [activator, partial curve].
In the case of `CC(C)[C@H](NC(=O)C1CCCC1)c1nc2ccccc2[nH]1`, the Potency is reported as inconclusive: 2.59 µM [activator, partial curve, poor fit].
With `Cc1c(C(=O)Oc2ccc(-c3cnc4ccccc4n3)cc2)cccc1[N+](=O)[O-]` the Potency was inconclusive: 5.8 µM [activator, full curve].
For `O=C(NNc1nc2ccccc2s1)Nc1ccc(F)cc1`, the Potency was inconclusive: 13 µM [activator, partial curve].
With `Cc1ccc(-n2ncc3c(N4CCC5(CC4)OCCO5)ncnc32)c(C)c1` the Potency was inconclusive: 32.6 µM [inhibitor, single point].
In the case of `CC(=O)N=c1c(C#N)cc2c(=O)n3cccc(C)c3nc2n1Cc1ccco1`, the Potency is reported as inconclusive: 29.1 µM [activator, single point].
With `COc1cc2c(cc1OC)C1(C)N(CC2)C(C(C)=O)=NN1c1ccc(Cl)cc1` (stereo not given) the Potency was inconclusive: 25.9 µM [inhibitor, partial curve, poor fit].
For `COc1cccc2c(SCC(=O)N/N=C/c3ccc(O)c(O)c3)cc(C)nc12`, the “activity change, negative = inhibition” value was inactive: -0.27%.
In the case of `Cc1c(Nc2nc(-c3ccc(Cl)cc3)cs2)c(=O)n(-c2ccccc2)n1C`, the “activity change, negative = inhibition” value is reported as inactive: -5.16%.
In the case of `CC(C)C(=O)Nc1ccc(-c2nc3ccccc3c(=O)o2)cc1`, the “activity change, negative = inhibition” value is reported as inactive: 11%.
With `O=C(CN1C(=O)NC2(CCCCC2)C1=O)NCCc1ccccc1` the Potency was inconclusive: 5.17 µM [activator, single point].
With `COc1cccc(/C=C2/CN(C)CC3=C2OC(N)=C(C#N)C3c2cccc(OC)c2)c1` (stereo not given) the Potency was inconclusive: 20.6 µM [inhibitor, partial curve].
In the case of `Cc1c(C(=O)N/N=C/C(C)C)[nH]c2ccc([N+](=O)[O-])cc12`, the Potency is reported as inconclusive: 9.2 µM [inhibitor, partial curve, poor fit].
With `COc1cccc(/C=N/n2c(-c3n[nH]c4c3CCC4)n[nH]c2=S)c1OC` the “activity change, negative = inhibition” value was inactive: 20.5%.
With `Cc1cc(C)c([N+](=O)[O-])cc1NC(=O)CCSc1ccccc1Cl` the Potency was inconclusive: 10.3 µM [inhibitor, partial curve].
For `CCOC(=O)C1(Cc2cccc(F)c2)CCN(Cc2ccc(COC)o2)CC1`, the Potency was active: 23.1 µM.
For `O=c1[nH]c(=O)n(Cc2ccccc2)c2nc(-c3ccc(Oc4ccc(F)cc4)c([N+](=O)[O-])c3)n(CCO)c12`, the Potency was inconclusive: 18.4 µM [inhibitor, partial curve].
For `CSc1ccccc1C(=O)Nc1cc2c(cc1C(=O)O)OCCCO2`, the “activity change, negative = inhibition” value was inactive: 3.34%.
% is scaled to controls: 0 for no effect and ±100 for the full control effect; potency is read from the fitted curve at half-maximal effect.
